Results taken from patent publication US12187720B2, “Compounds for treatment of cancer” (ONCTERNAL THERAPEUTICS, INC., priority 2010, dated 2025).

Tested on: A375
Test: SRB cytotoxicity assay, A375 human melanoma cells
Format: cell-based
Details: Table 14C; read-out: IC50 ± SEM A375 (converted)

`COc1cc2c(c(OC)c1OC)-c1ccc(OC)c(=O)cc1[C@@H](NC(C)=O)CC2` [colchicine, Colchicine, reference compound] gave an IC50 of 24 nM.
